PubChem BioAssay AID1159595 | NIAID – 2016
The whole screen tested 756 reagents; this is a random part of them. 115 of them (15%) count as active. 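Active calls cover both lowered and raised reporter signal; each score refers to one siRNA rather than a whole gene.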 A number with no mark means an inactive call. Reagents against one gene are numbered here. Not stated in the record: the amount of reagent.

Screen: 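Which toll-like receptor pathway genes macrophages need for Pam3CSK4-induced Tnf promoter activity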 (primary screen)
Cells: mouse RAW264.7 macrophage reporter cells
Knock-down reagent: single siRNA against mouse genes
Time to read-out: assayed 48 to 72 hours after siRNA transfection; ligand applied for 16 hours
Treatment: Pam3CSK4 (TLR2 ligand) for 16 hours before fixation; dose not given
Measured: 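High-content imaging of Tnf promoter-driven nuclear mCherry in cells given Pam3CSK4 for 16 h, 48–72 h after transfection; value is the replicate mean of plate-normalised background-corrected robust z-scores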
Direction: Tnf reporter z-score (replicate mean): higher = stronger Tnf promoter reporter signal than negative control wells
Active means: 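An siRNA is active when its replicate-mean z-score is -1.5 or lower or 1.5 or higher (activity score at least 50); activity graded at absolute z 1, 1.5, 2 and 2.5; calls apply to single siRNAs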
Calls: active = strong change (up or down); inactive = little change

Tnf reporter z-score (replicate mean), by gene knocked down and reagent
Pik3r3: #1 -1.57 (active); #2 -0.114; #3 0.0674; #4 -0.394; #5 0.252; #6 -0.679
Jun: #1 -1.26; #2 -0.505; #3 -0.0401; #4 -0.399; #5 -0.343; #6 1.11
Chuk: #1 0.695; #2 -1.98 (active); #3 0.66; #4 -1.08; #5 -0.175; #6 -0.188
Rel: #1 -1.15; #2 0.754; #3 0.219; #4 -0.0503; #5 -1.22; #6 -0.885
Elf4: #1 -0.135; #2 -0.474; #3 -1.99 (active); #4 -0.0941; #5 -1.37; #6 0.466
Ikbkb: #1 -0.734; #2 -1.76 (active); #3 -0.752; #4 -0.42; #5 -1.19; #6 -1.26
Fadd: #1 -0.702; #2 -2.26 (active); #3 -0.627; #4 0.503; #5 -0.564; #6 -0.934
Irak4: #1 0.0211; #2 -2.34 (active); #3 -1.42; #4 -2.16 (active); #5 -2.28 (active); #6 -1.4
Egr1: #1 -0.78; #2 -1.99 (active); #3 -1.34; #4 0.0387; #5 -1.32; #6 -0.294
Nfkbib: #1 -1.07; #2 -0.184; #3 1.74 (active); #4 -0.732; #5 -2.69 (active); #6 0.129
Dusp1: #1 -0.407; #2 0.283; #3 -0.591; #4 1.06; #5 -0.661; #6 -0.268
Akt1: #1 0.0242; #2 -1.18; #3 0.205; #4 0.113; #5 -0.78; #6 -0.571
Mapkapk2: #1 -2.33 (active); #2 0.891; #3 -0.979; #4 -1.43; #5 1.7 (active); #6 -0.373
Tlr7: #1 -1.12; #2 -1.33; #3 -0.522; #4 0.355; #5 1.05; #6 -0.107
Mapk9: #1 -0.106; #2 -0.00749; #3 -1.27; #4 0.821; #5 -0.794; #6 0.365
Traf6: #1 -0.833; #2 -1.61 (active); #3 -2.69 (active); #4 -0.516; #5 -0.814; #6 -0.942
Tab2: #1 -0.18; #2 -0.198; #3 -0.322; #4 -0.468; #5 -0.474; #6 -0.736
Tollip: #1 0.0503; #2 -0.287; #3 -1.92 (active); #4 -0.207; #5 1.64 (active); #6 -1.71 (active)
Ripk1: #1 -1.57 (active); #2 -0.417; #3 1.12; #4 1.2; #5 -0.532; #6 2.22 (active)

Ordered by “Tnf reporter z-score (replicate mean)” (ascending): 9 of the entries above
gene knocked down	reagent	Tnf reporter z-score (replicate mean)
Egr1	2	-1.99 (active)
Egr1	3	-1.34
Egr1	5	-1.32
Nfkbib	1	-1.07
Nfkbib	4	-0.732
Egr1	6	-0.294
Nfkbib	2	-0.184
Egr1	4	0.0387
Nfkbib	3	1.74 (active)
